From doi:10.1101/806802

Biological target: RIN4b of soybean (GmRIN4b), GAL4 DNA-binding domain fusion in pBridge (soybean) (UniProt C6TH04)
Assay: yeast three-hybrid

## AvrB, bacterial effector of Pseudomonas syringae, GAL4 activation domain fusion (from UniProt P13835 1-321)
  binding: binds

These are yes or no findings as the source states them, for the method shown. A result given as binding can be weak or reduced; the word gives no strength.
